Results taken from PubChem BioAssay AID2734 (National Center for Advancing Translational Sciences (NCATS), 2010).
Inconclusive results, whose numbers are uncertain, are shown with a selection of clear calls. Potencies of inconclusive entries are doubtful fits and often do not repeat. The source made the active and inactive calls. Calls come from the whole dose curve; as a rule, active = well fitted inhibition curve with a large enough effect; inconclusive = small, poorly fitted or top-dose-only effect, or effect the other way; inactive = no such curve, though single readings can be large or run the other way.

Test: High Content Assay for Compounds that inhibit the Assembly of the Perinucleolar Compartment: DNA Intercalation/PicoGreen Displacement Assay
Details: fluorescence (intercalation counter-screen); series mostly up to 57.1 µM; activity change, negative = displacement: at the top concentration
Text: High Content Assay for Compounds that inhibit the Assembly of the Perinucleolar Compartment
NIH Chemical Genomics Center [NCGC]
NIH Molecular Libraries Probe Centers Network [MLPCN]
Assay Submitter (PI): Sui Huang, Northwestern University, Feinberg School of Medicine, Cell and Molecular Biology, Chicago, Illinois.
The perinucleolar compartment (PNC) is a non-membrane-bound nuclear subdomain that is associated with but structurally distinct from the nucleolus. The PNC is a heritable trait, in which the number of PNCs per cell in daughter cells often mimics that of their mother cells. The PNC is heterogeneous in shape, is stable through interphase, disassembles during mitosis, and reassembles in early G1. The PNC is concentrated with newly synthesized RNA polymerase III (pol III) RNAs (MRP RNA, RNAse P H1 RNA, hY RNAs[hY1, 2, 5], Alu RNA, and SRP [7SL] RNA) and RNA binding proteins (nucleolin, PTB, CUG-BP, KSRP, Raver1, Raver2, and Rod).
Extensive in vitro studies have shown that the PNC is unique to tumor cells and preferentially forms in tumor cells derived from solid tissues. Examination of cancer cell lines from various origins and malignant capacities has shown that PNC prevalence correlates with the malignancy of tumors and has the potential to be developed as a pan-cancer prognostic marker. […]
Therefore, we conducted a DNA intercalation/displacement assay on the lead candidates in order to exclude compounds with this mechanism of action. […] Compounds which displace the dye will decrease fluorescence intensity and were considered DNA intercalators/displacers. In order to rule out potential fluorescence artifacts, a measurement of compound plus DNA only was also calculated. […]
4. A baseline signal was measured using an Envision PMT based plate reader using a 488 nm excitation filter and a 520 nm emission filter. […]
6. Plates were incubated at 37 C for 10 minutes prior to being read on the envision plate reader. […]

Structure (SMILES)	activity change, negative = displacement	Potency
Cc1c2ccncc2c(C)c2c1[nH]c1ccccc12	inactive: -26.8%	
Cc1ccc(C(O)(C(=O)NNC(=O)CN2CCN(C)CC2)c2ccc(C)cc2)cc1		inconclusive: 35.5 µM [activator, partial curve]
CCC(=NCc1cc(OC)cc(OC)c1)c1c(O)n(C)c(=O)n(C)c1=O	inactive: 14.1%	
